This note sets out measurements from patent US20120213763A1 (COUNCIL OF SCIENTIFIC AND INDUSTRIAL RESEARCH, published 2012).

By UniProt entry, the sequences of proteins in these tests, tags left out. Residues count along the entry.
UniProt P00747, residues 97-810: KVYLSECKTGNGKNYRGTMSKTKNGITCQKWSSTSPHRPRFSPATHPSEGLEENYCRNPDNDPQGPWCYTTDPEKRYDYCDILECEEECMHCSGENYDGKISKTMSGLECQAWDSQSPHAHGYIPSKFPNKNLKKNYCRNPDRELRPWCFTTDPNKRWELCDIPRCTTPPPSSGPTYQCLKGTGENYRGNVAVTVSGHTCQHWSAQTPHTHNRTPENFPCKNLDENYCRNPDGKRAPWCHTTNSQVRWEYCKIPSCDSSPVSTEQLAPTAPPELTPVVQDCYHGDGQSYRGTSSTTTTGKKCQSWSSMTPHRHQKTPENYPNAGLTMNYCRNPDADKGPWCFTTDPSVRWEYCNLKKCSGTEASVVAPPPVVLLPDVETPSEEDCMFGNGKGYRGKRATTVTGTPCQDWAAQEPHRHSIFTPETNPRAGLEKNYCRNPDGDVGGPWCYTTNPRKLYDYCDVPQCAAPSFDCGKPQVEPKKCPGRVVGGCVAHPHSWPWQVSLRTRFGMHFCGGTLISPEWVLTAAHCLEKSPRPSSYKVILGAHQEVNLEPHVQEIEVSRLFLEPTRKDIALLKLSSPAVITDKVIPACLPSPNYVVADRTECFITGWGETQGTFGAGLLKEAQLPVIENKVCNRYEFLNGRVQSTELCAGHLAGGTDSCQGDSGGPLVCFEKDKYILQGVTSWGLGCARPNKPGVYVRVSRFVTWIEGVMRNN

No constants are given. Whether binding was seen depends on the method and setting. Some binding calls cover weakened binding; strength is not graded here.

This assay has as its target human plasmin (human) (UniProt P00747). Description: preformed equimolar complex with plasmin, used as activator in the HPG activation assay.

On to “native streptokinase nSK (1-414) ATCC 12449 (SEQ ID NO 1) (from UniProt P00779 27-440)”, for which the binding entry is listed as “binds”.
